{"source": "patent US20200399339", "about": "(published 2020)", "key": {"[1]": {"assay": "general procedure: Fmoc solid-phase peptide synthesis; Wang; DIC/OxymaPure", "details": "whole synthesis; for crude HPLC purity / crude yield: scale of the general procedure 3 grams resin, loading 0.7 mmol/g; for crude yield: molar yield"}, "[2]": {"assay": "general procedure: Fmoc solid-phase peptide synthesis; Wang resin; DIC/OxymaPure", "details": "whole synthesis, scale of the general procedure 3 grams resin, loading 0.7 mmol/g"}}}
{"substance": "glucagon", "values": [{"measurement": "crude HPLC purity", "setting": "[1]; run 1", "value": 37, "unit": "%"}, {"measurement": "crude HPLC purity", "setting": "[1]; run 2", "value": 8, "unit": "%"}, {"measurement": "crude HPLC purity", "setting": "[1]; run 3", "value": 70, "unit": "%"}, {"measurement": "crude yield", "setting": "[1]; run 1", "value": 15, "unit": "%"}, {"measurement": "crude yield", "setting": "[1]; run 2", "value": 3, "unit": "%"}, {"measurement": "crude yield", "setting": "[1]; run 3", "value": 55, "unit": "%"}, {"measurement": "crude mass", "setting": "[1]; run 1", "value": 2.4, "unit": "g"}, {"measurement": "crude mass", "setting": "[1]; run 2", "value": 1.7, "unit": "g"}, {"measurement": "crude mass", "setting": "[1]; run 3", "value": 2.6, "unit": "g"}, {"measurement": "difficulty met", "setting": "[2]", "value": "presence of the truncated sequences at the residues Gly4, Gln3 and Ser2 in the crude glucagon"}]}
